No constants are given. Whether binding was seen depends on the method and setting. In cells and extracts the contact can be indirect. Here binding means that the protein was enriched with, or labelled near, the bait; the list need not be complete.

By UniProt entry, the sequences of proteins in these tests, tags left out. Where a name states a change or a piece, a line headed by the entry shows the natural chain unless it says otherwise. Chains listed by the source or under a name are the forms on record and can include a tag or linker.
eukaryotic translation initiation factor 4 gamma1 (eIF4GI), HA-tagged (Q04637, form named): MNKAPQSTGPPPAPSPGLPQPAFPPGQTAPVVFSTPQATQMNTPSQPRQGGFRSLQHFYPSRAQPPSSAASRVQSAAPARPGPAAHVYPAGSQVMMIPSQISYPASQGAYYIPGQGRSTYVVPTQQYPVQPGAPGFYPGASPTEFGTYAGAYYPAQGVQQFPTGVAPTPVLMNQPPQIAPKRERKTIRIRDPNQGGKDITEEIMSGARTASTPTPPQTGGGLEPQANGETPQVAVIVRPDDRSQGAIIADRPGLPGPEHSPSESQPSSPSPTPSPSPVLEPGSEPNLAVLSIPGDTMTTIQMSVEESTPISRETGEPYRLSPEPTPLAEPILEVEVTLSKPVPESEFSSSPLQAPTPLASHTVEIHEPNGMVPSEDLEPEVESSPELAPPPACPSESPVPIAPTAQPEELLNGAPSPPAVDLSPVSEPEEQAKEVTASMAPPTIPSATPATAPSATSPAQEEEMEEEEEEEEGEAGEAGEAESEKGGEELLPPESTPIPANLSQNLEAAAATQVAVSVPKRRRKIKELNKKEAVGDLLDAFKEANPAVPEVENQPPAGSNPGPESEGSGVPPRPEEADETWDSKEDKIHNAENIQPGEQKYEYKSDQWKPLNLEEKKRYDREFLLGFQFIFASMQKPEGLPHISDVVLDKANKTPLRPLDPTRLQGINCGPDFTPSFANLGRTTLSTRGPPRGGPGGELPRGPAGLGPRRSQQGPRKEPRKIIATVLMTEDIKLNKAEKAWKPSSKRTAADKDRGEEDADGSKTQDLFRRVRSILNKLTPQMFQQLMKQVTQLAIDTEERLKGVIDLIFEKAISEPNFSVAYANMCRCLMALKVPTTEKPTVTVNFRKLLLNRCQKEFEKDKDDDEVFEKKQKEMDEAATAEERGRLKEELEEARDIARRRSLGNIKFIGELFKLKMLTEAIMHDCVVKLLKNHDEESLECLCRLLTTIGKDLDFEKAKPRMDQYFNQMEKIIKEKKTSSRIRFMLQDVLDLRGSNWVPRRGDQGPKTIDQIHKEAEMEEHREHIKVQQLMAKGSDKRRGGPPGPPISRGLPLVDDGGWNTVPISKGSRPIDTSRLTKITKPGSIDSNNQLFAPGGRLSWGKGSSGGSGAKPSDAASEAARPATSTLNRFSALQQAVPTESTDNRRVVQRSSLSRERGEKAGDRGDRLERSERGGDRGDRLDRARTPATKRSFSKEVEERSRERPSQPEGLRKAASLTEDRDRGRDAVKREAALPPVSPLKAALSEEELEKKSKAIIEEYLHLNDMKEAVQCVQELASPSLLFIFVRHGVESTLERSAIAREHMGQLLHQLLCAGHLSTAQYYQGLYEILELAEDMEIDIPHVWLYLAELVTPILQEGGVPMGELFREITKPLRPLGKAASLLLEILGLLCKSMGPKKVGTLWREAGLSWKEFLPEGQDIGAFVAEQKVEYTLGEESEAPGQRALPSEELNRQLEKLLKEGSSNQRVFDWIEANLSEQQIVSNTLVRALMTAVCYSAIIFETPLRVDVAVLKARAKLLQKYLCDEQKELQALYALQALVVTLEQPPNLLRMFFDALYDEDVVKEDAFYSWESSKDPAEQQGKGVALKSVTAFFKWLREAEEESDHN

This assay addresses eukaryotic translation initiation factor 4 gamma1 (eIF4GI), HA-tagged (human) (UniProt Q04637). Briefly: affinity purification with mass spectrometry; HeLa cells transfected with eIF4GI-HA for 24 h; lysate subjected to IP with anti-HA antibody; SDS-PAGE, silver staining, mass spectrometry.

With “G3BP1 (endogenous, found by IP/MS) (from UniProt Q13283 1-466)”, the binding result is given as “binds”.

B1: G3BP2 (endogenous, found by IP/MS) (protein, UniProt Q9UN86 1-482)
chain: MVMEKPSPLLVGREFVRQYYTLLNKAPEYLHRFYGRNSSYVHGGVDASGKPQEAVYGQNDIHHKVLSLNFSECHTKIRHVDAHATLSDGVVVQVMGLLSNSGQPERKFMQTFVLAPEGSVPNKFYVHNDMFRYEDEVFGDSEPELDEESEDEVEEEQEERQPSPEPVQENANSGYYEAHPVTNGIEEPLEESSHEPEPEPESETKTEELKPQVEEKNLEELEEKSTTPPPAEPVSLPQEPPKAFSWASVTSKNLPPSGTVSSSGIPPHVKAPVSQPRVEAKPEVQSQPPRVREQRPRERPGFPPRGPRPGRGDMEQNDSDNRRIIRYPDSHQLFVGNLPHDIDENELKEFFMSFGNVVELRINTKGVGGKLPNFGFVVFDDSEPVQRILIAKPIMFRGEVRLNVEEKKTRAARERETRGGGDDRRDIRRNDRGPGGPRGIVGGGMMRDRDGRGPPPRGGMAQKLGSGRGTGQMEGRFTGQRR
On to B1, for which the binding entry is listed as “binds”.

The values above are taken from PMC6312541.
